Values quoted from earlier work in patent publication US20140056863A1, “NUTRITIONAL COMPOSITIONS HAVING ALPHA-HICA AND EICOSAPENTAENOIC ACID” (Nestec S.A., priority 2011, published 2014).
At least one structure is not confirmed: it was looked up by name or label, or the drawing left a doubt.

Tested on: nuclear factor-κβ (NF-κβ)

For `CC/C=C\C/C=C\C/C=C\C/C=C\C/C=C\CCCC(=O)O` [EPA, eicosapentaenoic acid], the unloading-induced bone loss (by minimizing activation of NF-κβ) is given as “reduce unloading-induced bone loss” and the skeletal muscle atrophy (cancer cachexia as well as sepsis) is given as “attenuate skeletal muscle atrophy”.
